{
  "source": "patent US20250136658A1",
  "about": "“ANTICONVULSANT AND NEUROPROTECTIVE AGENT” (THE UAB RESEARCH FOUNDATION, priority 2022, published 2025)",
  "tested_on": "primary hippocampal neurons",
  "test": "Glutamate-induced cell death in primary hippocampal neurons",
  "type": "cell-based, mice",
  "conditions": "100 μM glutamate, 10 μM R-PIA plus 30 μM LY294002",
  "procedure": "Primary hippocampal culture was performed as described previously (Chen Y, Liu Y, Cottingham C, McMahon L, Jiao K, Greengard P, et al. Neurabin scaffolding of adenosine receptor and RGS4 regulates anti-seizure effect of endogenous adenosine. J Neurosci. 2012, 32 (8): 2683-95). […] In brief, hippocampal neurons were cultured in 24-well plates for 13-14 days in vitro and treated with (1) vehicle, (2) 100 μM glutamate alone, (3) 100 μM glutamate plus 10 μM R-PIA, (4) 100 μM glutamate, 10 μM R-PIA, plus 30 μM LY294002, for 30 min at 37° C. Neurons were then washed twice, and incubated with regular growth medium at 37° C. for an additional 24 hrs. Neurons were stained with 4 μM calcein-AM and 4 μM EthD-1 in DPBS and mounted for imaging under a fluorescence microscope.",
  "note": "For at least one compound, name, drawing or mass did not settle the structure.",
  "data": [
    {"smiles": "O=c1cc(N2CCOCC2)oc2c(-c3ccccc3)cccc12", "note": "[LY294002]", "values": [
      {"measurement": "effect on R-PIA protection against glutamate-induced neuronal death", "result": "abolished the protective effect"}
    ]}
  ]
}
